Data on 25 compounds can be found in the supplement of paper PMC10735217.

This assay has as its system HEK293A TEAD-LUC reporter. The assay is described as follows: TEAD-luciferase reporter activity (YAP activation), robust Z score vs plate; higher = stronger YAP/TEAD activation. To be noted: 24 h.

Counter-ions that a name gives are not always drawn. The list shows a part of the results. This data set is noisy: repeats of one test often differ as much as different tests do.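 The human kidney-derived cells carry a stably integrated construct of eight TEAD-binding elements driving luciferase, read by luminescence in a drug-repurposing library screen. A compound counts as a hit when its signal is more than five robust Z scores above the plate mean.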

`CN1CC[C@]23c4c5ccc(O)c4O[C@H]2[C@@H](O)C=C[C@H]3[C@H]1C5`: the TEAD-luciferase reporter activity (compound concentration: 200 nM) was inactive: 0.495 and the TEAD-luciferase reporter activity (compound concentration: 10 uM) was inactive: 0.675.
Consider `C#C[C@]1(O)CC[C@H]2[C@@H]3CC[C@H]4C[C@H](O)CC[C@]4(C)[C@H]3CC[C@@]21C` [Apoptone], for which the TEAD-luciferase reporter activity (compound concentration: 200 nM) was inactive: -1.08, the TEAD-luciferase reporter activity (compound concentration: 2 uM) was inactive: 2.92 and the TEAD-luciferase reporter activity (compound concentration: 10 uM) was inactive: -1.29.
Regarding `CC[C@H]1CN2CCc3cc(OC)c(OC)cc3[C@@H]2C[C@@H]1C[C@H]1NCCc2cc(O)c(OC)cc21` [Cephaeline], the TEAD-luciferase reporter activity by setting is: (compound concentration: 200 nM) inactive: 0.47; (compound concentration: 2 uM) inactive: -1.66; (compound concentration: 10 uM) inactive: -1.28.
Take `CN[C@@H]1CC[C@@H](c2ccccc2)c2ccccc21`: the TEAD-luciferase reporter activity is, setting by setting: (compound concentration: 200 nM) inactive: 1.24; (compound concentration: 2 uM) inactive: -1.13; (compound concentration: 10 uM) inactive: -1.24.
The corresponding values for `c1ccc2nc(N3CCNCC3)ccc2c1` are inactive: -1.57, inactive: -0.709 and inactive: -0.349.
For `OCc1cccc(Cc2c[nH]cn2)c1O`, the TEAD-luciferase reporter activity (compound concentration: 200 nM) is active: 5.32, the TEAD-luciferase reporter activity (compound concentration: 2 uM) was inactive: -1.04 and the TEAD-luciferase reporter activity (compound concentration: 10 uM) was inactive: 0.771.
For `O=C1CC[C@@]2(O)[C@H]3Cc4ccc(O)c5c4[C@@]2(CCN3)[C@H]1O5` [Noroxymorphone hydrochloride], the TEAD-luciferase reporter activity is inactive: -0.0725 (compound concentration: 200 nM) and inactive: -1.04 (compound concentration: 10 uM).
With `CCC(O)(c1cccc(OC)c1)C(C)CN(C)C` (stereo unspecified), the TEAD-luciferase reporter activity is, setting by setting: (compound concentration: 200 nM) inactive: -0.78; (compound concentration: 2 uM) inactive: -0.435; (compound concentration: 10 uM) inactive: 0.577.
With `CC(C)C[C@H](NC(=O)[C@@H](N)CCCCN)C(=O)N[C@H](C(=O)N[C@H](C(=O)N[C@H](C(=O)NCC(=O)N[C@@H](C)C(=O)N[C@@H](CS)C(=O)NCC(=O)N[C@H](C(=O)NCC(=O)N[C@@H](CCCCN)C(=O)N[C@@H](CO)C(=O)O)C(C)C)C(C)C)C(C)C)C(C)C`, the TEAD-luciferase reporter activity was inactive: -0.251 (compound concentration: 200 nM), inactive: -0.594 (compound concentration: 2 uM) and inactive: -0.277 (compound concentration: 10 uM).
On to `CN1C(=O)CN=C(c2ccccc2F)c2cc([N+](=O)[O-])ccc21` [Flunitrazepam], for which the TEAD-luciferase reporter activity (compound concentration: 200 nM) was inactive: -1.35, the TEAD-luciferase reporter activity (compound concentration: 2 uM) is inactive: -0.231 and the TEAD-luciferase reporter activity (compound concentration: 10 uM) is inactive: 0.829.
Consider `CC(=O)N[C@@H]1[C@@H](O[C@H]2O[C@@H](C(=O)O)[C@H](O)[C@@H](O)[C@@H]2O)[C@@H](OS(=O)(=O)O[O-])[C@@H](CO)O[C@H]1O`, for which the TEAD-luciferase reporter activity by setting is: (compound concentration: 200 nM) inactive: 1.53; (compound concentration: 2 uM) inactive: 0.491; (compound concentration: 10 uM) inactive: 1.88.
For `[O-][I+2]([O-])[O-]`, the TEAD-luciferase reporter activity by setting is: (compound concentration: 200 nM) inactive: -1.48; (compound concentration: 10 uM) inactive: 3.39.
In the case of `CC[C@H](C)[C@H](NC(=O)[C@H](CC(C)C)NC(=O)[C@H](CC(C(=O)O)C(=O)O)NC(=O)[C@H](CCC(N)=O)NC(=O)[C@H](CC(N)=O)NC(=O)[C@H](CC(C(=O)O)C(=O)O)NC(=O)[C@H](CCC(N)=O)NC(=O)[C@H](CC(C)C)NC(=O)[C@H](CC(C(=O)O)C(=O)O)NC(=O)[C@H](CC(C(=O)O)C(=O)O)NC(=O)[C@H](CCC(=O)O)NC(=O)CN)C(=O)N[C@@H](CCCNC(=N)N)C(=O)N[C@@H](CC(C(=O)O)C(=O)O)C(=O)N[C@@H](CCCCN)C(=O)N[C@@H](CO)C(=O)N[C@@H](CC(N)=O)C(N)=O` [Conantokin G], the TEAD-luciferase reporter activity reads like this: (compound concentration: 200 nM) inactive: 0.307; (compound concentration: 2 uM) inactive: -1.12; (compound concentration: 10 uM) inactive: -1.65.
As to `CCOC(C(=O)OCCN(C)C)(c1ccccc1)c1ccccc1` [Dimenoxadol], the TEAD-luciferase reporter activity (compound concentration: 200 nM) is inactive: -0.669, the TEAD-luciferase reporter activity (compound concentration: 2 uM) was inactive: 1.43 and the TEAD-luciferase reporter activity (compound concentration: 10 uM) was inactive: 0.0311.
The corresponding values for `CC(C)(C)NCC(O)c1ccccc1F` (stereo unspecified) [flerobuterol] are inactive: 0.124, inactive: -1.09 and inactive: -0.828.
On to `Cc1cc2c(cc1-c1cc(/C=C3/SC(=O)NC3=O)ccc1OC(F)(F)F)C(C)(C)CCC2(C)C`, for which the TEAD-luciferase reporter activity was inactive: -1.65 (compound concentration: 200 nM), inactive: -1.17 (compound concentration: 2 uM) and inactive: 2.05 (compound concentration: 10 uM).
As for `FC(F)(F)c1cccc(C2=CCN(CCc3ccc(-c4ccccc4)cc3)CC2)c1`, the TEAD-luciferase reporter activity by setting is: (compound concentration: 200 nM) inactive: 3.19; (compound concentration: 2 uM) inactive: -1.23; (compound concentration: 10 uM) inactive: 3.17.
As to `O=C(NC1CN2CCC1CC2)c1ccc(Cl)cc1` (stereo unspecified), the TEAD-luciferase reporter activity runs as follows: (compound concentration: 200 nM) inactive: 1.49; (compound concentration: 2 uM) inactive: -0.838; (compound concentration: 10 uM) inactive: -0.734.
Consider `O=C(C1CCCN1C(=O)c1ccc(C(F)(F)F)cc1)N1CCC(N2CCOCC2=O)CC1` (stereo unspecified), for which the TEAD-luciferase reporter activity was inactive: -1.09 (compound concentration: 200 nM) and inactive: -0.0776 (compound concentration: 10 uM).
Regarding `CC(C)OC(=O)Nc1cccc(Cl)c1` [Chlorpropham], the TEAD-luciferase reporter activity reads like this: (compound concentration: 200 nM) inactive: 0.961; (compound concentration: 2 uM) inactive: 1.75; (compound concentration: 10 uM) inactive: -0.581.
In the case of `C[C@]12CC[C@H](O)CC1=CC(=O)[C@@H]1[C@@H]2CC[C@]2(C)C(=O)CC[C@@H]12`, the TEAD-luciferase reporter activity (compound concentration: 200 nM) is inactive: 0.679, the TEAD-luciferase reporter activity (compound concentration: 2 uM) is inactive: -1.11 and the TEAD-luciferase reporter activity (compound concentration: 10 uM) is inactive: 0.0128.
As to `CCCNCCc1ccccc1`, the TEAD-luciferase reporter activity reads like this: (compound concentration: 200 nM) inactive: 1.03; (compound concentration: 2 uM) inactive: 0.266; (compound concentration: 10 uM) active: 5.56.
For `COc1ccc(C(C)C)cc1CN[C@@H]1C2CCN(CC2)[C@H]1C(c1ccccc1)c1ccccc1`, the TEAD-luciferase reporter activity is inactive: 0.115 (compound concentration: 200 nM), inactive: 0.0669 (compound concentration: 2 uM) and inactive: -0.299 (compound concentration: 10 uM).
The corresponding values for `COP(=S)(OC)Oc1ccc(SC)c(C)c1` [Fenthion] are inactive: 0.182, inactive: -0.792 and inactive: -0.609.
With `Cc1ccc([C@@]2(O)C(=O)O[C@@H]3[C@@H](O)CO[C@@]32O)o1` [methoxatone], the TEAD-luciferase reporter activity (compound concentration: 200 nM) was inactive: -0.817, the TEAD-luciferase reporter activity (compound concentration: 2 uM) is inactive: 1.27 and the TEAD-luciferase reporter activity (compound concentration: 10 uM) was inactive: -1.73.
